## Screening data

The results are deposited in PubChem (AID1224904; Broad Institute, 2016).

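Control-channel Italica luciferase signal in doxycycline-induced 293T-iDUX4 cells, given as percent activity after a 24-hour treatment. The test concentration is not given here. Percent change in the Italica control signal; more negative values mean stronger inhibition, which points to nonspecific, tet-on or cytotoxic effects.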

Values are in %. Common to all entries: measured here: Italica tet-on control reporter. Part of the compounds only, not a random draw; the main read-out is not listed here.

| structure | activity change (%) |
|---|---|
| `O=C(C[C@@H]1CC[C@@H]2[C@H](COC[C@H](O)CN2Cc2ccc(C(F)(F)F)cc2)O1)NCCc1ccccc1` | -9.182 |
| `COc1cc(CN2C[C@@H]3N[C@H](C2)C3c2ccc(-c3ccc(C#N)cc3)cc2)cc(OC)c1` (some centres undefined) | -89.22 |
| `O=C(c1ccccc1F)N1CC[C@@H]2[C@H]1c1cc(C#Cc3ccc(F)cc3)ccc1N[C@@H]2CO` | -3.115 |
| `C[C@H](CO)N1C[C@H](C)[C@H](CN(C)S(=O)(=O)c2ccsc2)OCc2ccccc2-c2ccccc2C1=O` | -9.317 |
| `Cc1cccc(-c2ccc([C@H]3[C@@H](CO)N4CCCCN(S(=O)(=O)c5ccccc5F)C[C@H]34)cc2)c1` | -7.82 |
| `O=C(C[C@@H]1CC[C@@H]2[C@H](COC[C@@H](O)CN2C(=O)Nc2ccc(Cl)c(Cl)c2)O1)NCc1ccccc1` | -18.83 |
| `CN(C)CCCNC(=O)[C@H]1[C@H](CO)[C@H]2Cn3c(ccc(C4=CCCC4)c3=O)[C@H]2N1CCC(F)(F)F` | -2.604 |
| `O=C(c1ccccc1F)N1CC(=O)N2[C@H](C1)[C@H](c1ccc(C#Cc3ccccc3)cc1)[C@@H]2CO` | -5.757 |
| `O=C(C[C@H]1C[C@H]2c3cc(NC(=O)c4ccc5c(c4)OCO5)ccc3O[C@H]2[C@H](CO)O1)NCc1ccccn1` | -8.101 |
| `CC(=O)N1CC2(C1)[C@H](c1ccc(-c3cccc(F)c3)cc1)[C@H](CO)N2CC1CCCC1` | -19.73 |
| `N#Cc1cccc(-c2ccc3c(c2)[C@H]2[C@H](CCN2C(=O)c2ccc4c(c2)OCO4)[C@H](CO)N3)c1` | -43.85 |
| `O=C(Cc1ccccc1)N1CC2(C1)[C@H](c1ccccc1)[C@H](CO)N2S(=O)(=O)Cc1ccccc1` | -14.4 |
| `O=C(Nc1cc(F)ccc1F)N1CCCCN2[C@H](CO)[C@H](c3ccc(C4=CCCCC4)cc3)[C@H]2C1` | -79.5 |
| `O=C(C1CCC1)N1CC2(C1)[C@H](c1ccccc1)[C@@H](CO)N2Cc1ccccc1F` | 5.09 |
| `Cc1ccc(OC(=O)N(C)C[C@H]2OCc3ccccc3-c3c(n(C)c4ccccc34)C(=O)N([C@H](C)CO)C[C@H]2C)cc1` | -2.347 |
| `COc1ccc2c3c([nH]c2c1)[C@@H](CO)N(Cc1ccccc1F)CC31CCN(C)CC1` | -18.25 |
| `O=C(Cc1ccccn1)N[C@@H]1CC[C@H](CCNS(=O)(=O)c2cccc(F)c2)O[C@@H]1CO` | -11.72 |
| `CCCNC(=O)N1CC2(CCN(C(=O)Nc3cccc(F)c3)CC2)c2c(n(C)c3cc(OC)ccc23)[C@@H]1CO` | -10.68 |
| `O=C(C[C@@H]1CC[C@H]2[C@@H](COC[C@H](O)CN2Cc2cccc(C(F)(F)F)c2)O1)NCc1ccc(F)cc1` | -32.48 |
| `COC(=O)C[C@H]1C[C@H]2c3cc(NC(=O)Nc4ccc(C(F)(F)F)cc4)ccc3O[C@H]2[C@@H](CO)O1` | -3.983 |
| `CO[C@H]1CN(C)C(=O)c2cc(NS(=O)(=O)c3cccc(F)c3)ccc2OC[C@@H](C)N(Cc2cc(F)ccc2F)C[C@H]1C` | -22.96 |
| `O=C(C1CCCCC1)N1CC2(C1)[C@@H](c1ccccc1)[C@@H](CO)N2CC1CCCC1` | -12.71 |
| `CCCC#Cc1ccc([C@@H]2[C@H](CO)N3C(=O)CN(C(=O)Nc4ccccc4)C[C@@H]23)cc1` | -21.44 |
| `C[C@@H](NC(=O)C[C@H]1C[C@@H]2c3cc(NC(=O)Nc4ccccc4F)ccc3O[C@@H]2[C@@H](CO)O1)c1ccccc1` | -9.977 |
| `C[C@H](CO)N1C[C@H](C)[C@H](CN(C)S(=O)(=O)c2ccccc2C#N)OCc2ccccc2-c2c(n(C)c3ccccc23)C1=O` | -16.93 |
| `C[C@@H]1CN([C@@H](C)CO)C(=O)c2c(c3ccccc3n2C)-c2ccccc2CO[C@@H]1CN(C)S(=O)(=O)c1ccc(F)cc1` | -4.825 |
| `COc1ccc2c3c([nH]c2c1)[C@@H](CO)N(Cc1ccccc1)CC31CCN(S(=O)(=O)c2ccc(C)cc2)CC1` | -65.98 |
| `COC(=O)[C@H]1[C@H](CO)[C@H]2Cn3c(ccc(C4=CCCCC4)c3=O)[C@H]2N1CC1CCCCC1` | -14.76 |
| `O=C(C1CC1)N1CC2(C1)[C@@H](c1ccccc1)[C@@H](CO)N2Cc1ccc(Cl)cc1` | -5.53 |
| `C/C=C/c1ccc(C2[C@@H]3CN(Cc4cc(OC)cc(OC)c4)C[C@H]2N3)cc1` (some centres undefined) | -3.837 |
| `O=C(Nc1ccccc1)N1CCCCN2[C@H](CO)[C@H](c3ccc(C4=CCCCC4)cc3)[C@@H]2C1` | -9.752 |
| `C[C@@H]1CN([C@H](C)CO)C(=O)c2c(c3ccccc3n2C)-c2ccccc2CO[C@@H]1CN(C)C(=O)c1cc(Cl)cc(Cl)c1` | -22.03 |
| `CCC(=O)N1CCC2(CC1)CN(Cc1cccc(F)c1)[C@H](CO)c1c2c2ccc(OC)cc2n1C` | -22.1 |